These are yes or no findings as the source states them, for the method shown. Some results given as binding are weak or reduced against the parent protein; the word gives no strength. For some of these results: Where a sequence is shown, tags or fusion partners need not be part of it.
How the values were obtained:
[1] = target: Purified recombinant PCNA (UniProt P12004); assay: GST-Rad18 pull-down of purified proteins, immunoblot (FIG. 4c)
[2] = target: T1, Purified recombinant 6x His-tagged Arm1 (human) (UniProt Q9H993); assay: as above
T1 sequence: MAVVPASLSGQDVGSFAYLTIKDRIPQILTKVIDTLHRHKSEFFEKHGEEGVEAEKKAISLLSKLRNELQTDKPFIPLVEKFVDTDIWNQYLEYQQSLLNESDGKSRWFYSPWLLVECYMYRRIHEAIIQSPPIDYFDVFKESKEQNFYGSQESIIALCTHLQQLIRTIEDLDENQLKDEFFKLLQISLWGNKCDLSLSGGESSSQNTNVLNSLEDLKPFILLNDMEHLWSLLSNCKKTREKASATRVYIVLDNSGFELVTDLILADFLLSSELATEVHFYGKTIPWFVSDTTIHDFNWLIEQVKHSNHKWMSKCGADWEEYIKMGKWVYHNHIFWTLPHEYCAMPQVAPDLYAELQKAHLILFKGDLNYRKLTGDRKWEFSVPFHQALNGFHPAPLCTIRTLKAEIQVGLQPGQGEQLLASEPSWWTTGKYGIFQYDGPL

Protein sequences, listed by entry. Tags and fused reporters are not part of them.
UniProt P12004: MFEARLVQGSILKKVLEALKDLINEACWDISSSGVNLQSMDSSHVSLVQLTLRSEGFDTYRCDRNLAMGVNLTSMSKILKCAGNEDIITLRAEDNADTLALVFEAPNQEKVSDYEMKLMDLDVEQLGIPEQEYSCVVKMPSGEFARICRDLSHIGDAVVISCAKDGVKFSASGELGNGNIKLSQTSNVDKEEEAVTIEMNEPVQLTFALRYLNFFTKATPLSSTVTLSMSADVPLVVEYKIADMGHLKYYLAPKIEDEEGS
UniProt Q9NS91: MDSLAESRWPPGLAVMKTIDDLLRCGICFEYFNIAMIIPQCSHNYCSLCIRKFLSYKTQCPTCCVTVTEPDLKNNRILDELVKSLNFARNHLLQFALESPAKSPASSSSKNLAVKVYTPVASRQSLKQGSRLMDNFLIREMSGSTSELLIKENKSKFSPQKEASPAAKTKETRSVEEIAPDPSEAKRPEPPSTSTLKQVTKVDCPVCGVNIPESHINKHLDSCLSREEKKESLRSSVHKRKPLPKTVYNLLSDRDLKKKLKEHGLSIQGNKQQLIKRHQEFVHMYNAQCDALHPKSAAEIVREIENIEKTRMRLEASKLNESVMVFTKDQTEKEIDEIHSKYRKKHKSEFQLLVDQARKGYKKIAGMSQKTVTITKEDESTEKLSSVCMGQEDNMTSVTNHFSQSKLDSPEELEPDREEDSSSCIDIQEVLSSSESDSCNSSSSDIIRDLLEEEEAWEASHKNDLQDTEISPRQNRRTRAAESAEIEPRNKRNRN

[3] = target: Purified recombinant PCNA (UniProt P12004); assay: recombinant PCNA incubated with or without recombinant Arm1, SAM or sinefungin, then glutathione Sepharose bound GST-Rad18; SDS-PAGE and immunoblot
[4] = target: T1, Purified recombinant 6x His-tagged Arm1 (human); assay: as above

binding [1]: binds
binding [2]: binds
binding [3]: binds
binding [4]: binds
Substance: GST-Rad18 (from UniProt Q9NS91 1-495)
